Source: US20160046689A1 (NOVELOGICS BIOTECHNOLOGY, published 2016)
Results are given in words; binding and its absence hold for the method and conditions named. Some entries that bind do so weakly or less than the wild type.

T1: recombinant E. coli-produced ectodomain protein from human MICA (human) (UniProt Q29983)
T1 sequence (looked up): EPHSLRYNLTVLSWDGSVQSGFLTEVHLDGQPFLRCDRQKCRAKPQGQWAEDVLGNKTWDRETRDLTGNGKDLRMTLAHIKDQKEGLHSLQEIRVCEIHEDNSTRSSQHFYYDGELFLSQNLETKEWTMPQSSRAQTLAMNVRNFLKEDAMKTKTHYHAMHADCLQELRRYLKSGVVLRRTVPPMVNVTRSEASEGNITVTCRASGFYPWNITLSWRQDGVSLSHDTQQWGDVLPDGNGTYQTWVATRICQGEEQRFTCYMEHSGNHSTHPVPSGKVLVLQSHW

T2: recombinant E. coli-produced ectodomain protein from human MICB (human) (UniProt Q29980)
T2 sequence (looked up): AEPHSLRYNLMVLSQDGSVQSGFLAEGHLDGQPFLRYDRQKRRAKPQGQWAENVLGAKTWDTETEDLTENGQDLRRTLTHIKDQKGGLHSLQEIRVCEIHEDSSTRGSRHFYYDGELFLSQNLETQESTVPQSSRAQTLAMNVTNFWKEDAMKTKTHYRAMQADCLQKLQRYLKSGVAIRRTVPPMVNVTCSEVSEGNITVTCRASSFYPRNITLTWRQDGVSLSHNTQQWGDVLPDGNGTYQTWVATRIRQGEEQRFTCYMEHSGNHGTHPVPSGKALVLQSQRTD

B1: antibody 1F5 (antibody, IgG1, V domains shown)
VH: QIQLVQSGPELKKPGETVKISCKASGYTFTDYSVHWVKQAPGKGLKWMGWINTETGEPTYADDFKGRFAFSLETSASTAYLQINNLKNEDTATYFCARAGGNAFAYWGQGTLVTVSA
VL: DIVLTQSPASLAVSLGQRATISCRASKSVSTSGYSYMHWYQQKPGQPPKLLIYRASNLESGVPARFSGSGSGTDFTLNIHPVEEEDAATYYCQHSRELPLTFGAGTKLELKR
notes: Mouse hybridoma monoclonal, IgG1 heavy chain and kappa light chain; Tested as hybridoma supernatant in ELISA and FACS; also called IF5; antibody from clone 1F5
B2: antibody 8C7 (antibody, IgG1, V domains shown)
VH: QIQLVQSGPELKKPGETVKISCKASGYTFTNYGMNWVKQAPGKGLKWMGWINTNTGEPTYAEEFKGRFAFSLETSASTAYLQINNLKNEDTATYFCARSGGSSPFAYWGQGTLVTVSA
VL: DIVMTQAAPSVPVTPGESVSISCRSSKSLLQSNGNTFLYWFMQRPGQSPQLLIYRMSNLASGVPDRFSGSGSGTAFTLRISRVEAEDVGVYYCMQHLEYPFTFGGGTKLEIKR
notes: Mouse hybridoma monoclonal, IgG1 heavy chain and kappa light chain; Tested as hybridoma supernatant in ELISA and FACS; also called antibody from clone 8C7; hybridoma clone 8C7

Experiments:
[1] = biological target: T1, recombinant E. coli-produced ectodomain protein from human MICA (human); experiment: indirect ELISA, hybridoma supernatant on coated antigen
[2] = biological target: T2, recombinant E. coli-produced ectodomain protein from human MICB (human); experiment: as above

Row | Binder | binding [1] | binding [2]
1 | B1 | binds | binds
2 | B2 | binds | binds
